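Genome-wide siRNA knockdown in TC32 Ewing sarcoma cells, comparing luciferase light from an NR0B1-promoter reporter with a CMV-promoter reporter 48 hours after transfection.
Each siRNA was applied at 20 nM.
A z-score of the log NR0B1-over-CMV signal, less the median of siRNAs with the same seed; more negative means a stronger specific loss of the NR0B1 reporter.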

The strongest results of the screen are mostly left out here.
Sequences are the guide (antisense) strand, without overhang.

- AUUUUUAACCUCGAUAAUC against LONP1 | seed-corrected z-score 0.565
- UGGGAGUCAAUCAGCAUGC against TMCO3 | seed-corrected z-score 0.062
- UACACGAUCAGGUUUGUGG against SLC39A10 | seed-corrected z-score -0.3995
- UCUUGUCUAAGGCUCCUGG against GTSF1 | seed-corrected z-score -0.3303
- UCUGUAACUUCAUCCGAGC against C2CD5 | seed-corrected z-score -0.4863
- UUCGUGGUAGCGAUCAUGU against VRTN | seed-corrected z-score -0.5343
- UCUGCAACCAUUGCUCACG against FAM207A | seed-corrected z-score 0.4946
- UAAGGAUGUAGACGAAGCU against KCNK3 | seed-corrected z-score -0.08564
- UUUGAGUACGUUUUGACAC against DGKG | seed-corrected z-score -0.5964
- AACAGAGCAGUAGUAAUCC against VPREB3 | seed-corrected z-score -0.6521
- AUAAUUUCCAGAUCCGCAC against MYRFL | seed-corrected z-score 1.034
- UUGCGGAUCAUACACAGGC against NUDT8 | seed-corrected z-score 0.09392
- ACAGUAUACACGAUCAUAC against PCMTD2 | seed-corrected z-score -0.366
- UCUGUUCCUCUUCUAGCCG against LSG1 | seed-corrected z-score 0.7552
- AUUUCUAUGAAGGUAGUGC against PIGH | seed-corrected z-score 0.3068
- AAGGGAAACACCGUCGUGU against CYP11B1 | seed-corrected z-score 0.09594
- UCUUUUAGAUAGGAUAACC against VN1R2 | seed-corrected z-score -1.209
- UAGAGGGUCACAGAGAUGU against EHBP1L1 | seed-corrected z-score 0.6158
- AUUGAGACGAGAGAUCUCC against KCNH4 | seed-corrected z-score -0.636
- UAUCUAUCAAUGCUGAUAC against GPR21 | seed-corrected z-score -0.2056
- UACAGGGCAAGGUGUGAGU against DCANP1 | seed-corrected z-score 0.2662
- UAUUAGGAUAGAGCAAGGG against OR11H1 | seed-corrected z-score 1.167
- UAUCGGUAGAUGGAAUAGC against IL20RA | seed-corrected z-score -0.3852
- UGAAAGAACAUCUAUAGCU against TMED8 | seed-corrected z-score 0.3564
- UUCCAAUUGUGCGAAAAUC against PANK3 | seed-corrected z-score -0.007239
- AGGUGUGACACCAUAAUCC against ENKUR | seed-corrected z-score 0.1006
- UUCUUGAUCCUUGUCGUUC against SCG2 | seed-corrected z-score -0.4502
- AAGGUUUGCACUGCUUUCU against IGFBP5 | seed-corrected z-score 0.9918

Once more, the final 3:

* AGGUGUGACACCAUAAUCC against ENKUR | seed-corrected z-score 0.1006
* UUCUUGAUCCUUGUCGUUC against SCG2 | seed-corrected z-score -0.4502
* AAGGUUUGCACUGCUUUCU against IGFBP5 | seed-corrected z-score 0.9918

From PubChem BioAssay record AID1159506 (NCATS, 2015).